The record followed here is PMC3317656.

The chains behind the UniProt entries cited, without tags or fusion partners. Residues count along the entry.
UniProt O00238, residues 14-502: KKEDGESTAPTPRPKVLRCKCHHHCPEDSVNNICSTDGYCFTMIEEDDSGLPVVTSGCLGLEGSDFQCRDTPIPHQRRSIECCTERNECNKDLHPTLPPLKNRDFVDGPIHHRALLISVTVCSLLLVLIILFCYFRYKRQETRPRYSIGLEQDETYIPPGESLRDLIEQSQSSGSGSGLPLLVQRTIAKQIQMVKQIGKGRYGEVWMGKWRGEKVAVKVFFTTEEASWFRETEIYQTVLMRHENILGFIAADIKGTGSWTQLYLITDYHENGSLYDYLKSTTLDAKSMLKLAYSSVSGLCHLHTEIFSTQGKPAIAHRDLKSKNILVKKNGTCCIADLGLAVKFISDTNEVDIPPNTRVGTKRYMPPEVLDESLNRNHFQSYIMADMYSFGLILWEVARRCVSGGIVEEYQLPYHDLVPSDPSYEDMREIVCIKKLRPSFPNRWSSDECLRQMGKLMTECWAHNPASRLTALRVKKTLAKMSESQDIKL

These are yes or no findings as the source states them, for the method shown. Binding seen in cells or lysates may run through a third protein. Some binding calls cover weakened binding; strength is not graded here. Where a sequence is shown, tags or fusion partners need not be part of it.

Experiment [1] deals with T1, Myc-tagged follistatin-like 1 (Fstl1) (mouse) (UniProt Q62356).
T1 sequence: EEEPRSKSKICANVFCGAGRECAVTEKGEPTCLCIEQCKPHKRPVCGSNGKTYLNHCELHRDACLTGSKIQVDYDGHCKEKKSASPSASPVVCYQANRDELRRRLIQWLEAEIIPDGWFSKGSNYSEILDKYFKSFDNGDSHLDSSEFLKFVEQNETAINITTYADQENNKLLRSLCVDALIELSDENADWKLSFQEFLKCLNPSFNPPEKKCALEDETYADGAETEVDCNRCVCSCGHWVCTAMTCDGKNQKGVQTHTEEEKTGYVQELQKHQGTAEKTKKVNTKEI
Kind of experiment: co-IP; HEK293 cells co-transfected with Myc-Fstl1 and HA-tagged receptor, 48 h; whole cell lysate precipitated with anti-c-Myc antibody and Protein A/G agarose at 4°C; blot with anti-HA.

The target of experiment [2] is T1, Myc-tagged follistatin-like 1 (Fstl1) (mouse). Kind of experiment: co-IP; COS7 cells co-transfected with Myc-Fstl1 and HA-tagged receptor, 48 h; whole cell lysate precipitated with anti-c-Myc antibody and Protein A/G agarose at 4°C; blot with anti-HA.
The target is the same in experiment [3]. Kind of experiment: co-IP; HEK293 cells co-transfected with Myc-Fstl1 and HA-tagged receptor, 48 h; whole cell lysate precipitated with anti-c-Myc antibody and Protein A/G agarose at 4°C; blot with anti-HA. The source holds these as a separate data set.

“HA-tagged ALK6 (from UniProt O00238 14-502) (receptor)”: the binding entry in experiment [1] and in experiment [2] was “binds” in each case.

B1: HA-tagged ALK5 (receptor, UniProt P36897 34-503)
chain: LQCFCHLCTKDNFTCVTDGLCFVSVTETTDKVIHNSMCIAEIDLIPRDRPFVCAPSSKTGSVTTTYCCNQDHCNKIELPTTVKSSPGLGPVELAAVIAGPVCFVCISLMLMVYICHNRTVIHHRVPNEEDPSLDRPFISEGTTLKDLIYDMTTSGSGSGLPLLVQRTIARTIVLQESIGKGRFGEVWRGKWRGEEVAVKIFSSREERSWFREAEIYQTVMLRHENILGFIAADNKDNGTWTQLWLVSDYHEHGSLFDYLNRYTVTVEGMIKLALSTASGLAHLHMEIVGTQGKPAIAHRDLKSKNILVKKNGTCCIADLGLAVRHDSATDTIDIAPNHRVGTKRYMAPEVLDDSINMKHFESFKRADIYAMGLVFWEIARRCSIGGIHEDYQLPYYDLVPSDPSVEEMRKVVCEQKLRPNIPNRWQSCEALRVMAKIMRECWYANGAARLTALRIKKTLSQLSQQEGIKM
In the case of B1, the binding entry in experiment [3] is “no binding”.
